The values below come from publication PMC11971462, “Generation and validation of a novel multitarget small molecule in glioblastoma” (Cell Death & Disease, 2025).

This series concerns GNS166 cells. The note with it: GNS166, 5 µM, 48 h; fold-change > 4, p < 0.01.

For the compound `C#CCN(Cc1cc2cc(OCCCN3CCCCC3)ccc2n1S(=O)(=O)c1ccccc1)C(=O)CCCCCCC(=O)NO` [DDI199], the “Number of downregulated genes (RNAseq)” value amounted to 204 and the “Number of upregulated genes (RNAseq)” value came to 952.
